PubChem BioAssay AID1259308 – NCATS – 2017
Aim: 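Genes whose loss raises luciferase production in HEK293 cells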 (primary screen). Cell system: human HEK293 embryonic kidney cells stably expressing firefly luciferase (HEK-CMV-Luc2-Hygro). Reagents: single siRNA against human genes, 0.8 pmol siRNA per well. Timing: 72 h. Read-out: 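Reporter luminescence and viable-cell signal on separate replicate plates, given as percent of non-targeting control and median/MAD z-scores, plus per-cell luciferase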. Reading the numbers: total luciferase, z-score: higher = more reporter protein produced. Hit rule: 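An siRNA counts as active if its total luciferase robust z-score exceeds 3; genes with two or more such siRNAs out of three were retested with fresh siRNAs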. Calls: active = raised luciferase; inactive = no rise.
The whole screen tested about 59,000 reagents; shown is a random part of them. About 1,510 of them (2.6%) count as active. 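Calls use total luciferase alone and ignore viability, so some active siRNAs may act by altering cell number.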 Entries without a mark were called inactive. The numbers tell different reagents against one gene apart. Further read-outs or replicates are left out here.

TIGIT #1 — total luciferase, z-score: -1.1
TIGIT #2 — total luciferase, z-score: 1.35
TIGIT #3 — total luciferase, z-score: 1.14
ZNF22-AS1 #1 — total luciferase, z-score: -1.49
ZNF22-AS1 #2 — total luciferase, z-score: -0.591
ZNF22-AS1 #3 — total luciferase, z-score: -0.0804
LYPD1 #1 — total luciferase, z-score: 0.175
LYPD1 #2 — total luciferase, z-score: 0.0869
LYPD1 #3 — total luciferase, z-score: 2.02
HNRNPH3 #1 — total luciferase, z-score: -1.02
HNRNPH3 #2 — total luciferase, z-score: 1.82
HNRNPH3 #3 — total luciferase, z-score: -0.0155
STAMBPL1 #1 — total luciferase, z-score: -0.519
STAMBPL1 #2 — total luciferase, z-score: 1.28
STAMBPL1 #3 — total luciferase, z-score: 0.0418
RPL35 #1 — total luciferase, z-score: -2.94
RPL35 #2 — total luciferase, z-score: -2.21
RPL35 #3 — total luciferase, z-score: -2.33
FTCD #1 — total luciferase, z-score: 0.875
FTCD #2 — total luciferase, z-score: -1.15
FTCD #3 — total luciferase, z-score: -0.767

Laid out differently: results already given.
{"Target gene": "FTCD", "reagent no.": 2, "total luciferase, z-score": -1.15}
{"Target gene": "FTCD", "reagent no.": 3, "total luciferase, z-score": -0.767}
